Reference: publication PMC5720831
Results are given in words; binding and its absence hold for the method and conditions named. Binding can be weak; no strength is given. Where a sequence is shown, tags or fusion partners need not be part of it.

B1: Mtb DnaA-HA, purified recombinant (protein, UniProt P9WNW3 1-507)
chain: MTDDPGSGFTTVWNAVVSELNGDPKVDDGPSSDANLSAPLTPQQRAWLNLVQPLTIVEGFALLSVPSSFVQNEIERHLRAPITDALSRRLGHQIQLGVRIAPPATDEADDTTVPPSENPATTSPDTTTDNDEIDDSAAARGDNQHSWPSYFTERPHNTDSATAGVTSLNRRYTFDTFVIGASNRFAHAAALAIAEAPARAYNPLFIWGESGLGKTHLLHAAGNYAQRLFPGMRVKYVSTEEFTNDFINSLRDDRKVAFKRSYRDVDVLLVDDIQFIEGKEGIQEEFFHTFNTLHNANKQIVISSDRPPKQLATLEDRLRTRFEWGLITDVQPPELETRIAILRKKAQMERLAVPDDVLELIASSIERNIRELEGALIRVTAFASLNKTPIDKALAEIVLRDLIADANTMQISAATIMAATAEYFDTTVEELRGPGKTRALAQSRQIAMYLCRELTDLSLPKIGQAFGRDHTTVMYAQRKILSEMAERREVFDHVKELTTRIRQRSKR

Columns and labels:
[1] = target: T1, Mtb DnaA-HA, purified recombinant (Mycobacterium tuberculosis) (UniProt P9WNW3); test: pull-down; both purified
T1 sequence: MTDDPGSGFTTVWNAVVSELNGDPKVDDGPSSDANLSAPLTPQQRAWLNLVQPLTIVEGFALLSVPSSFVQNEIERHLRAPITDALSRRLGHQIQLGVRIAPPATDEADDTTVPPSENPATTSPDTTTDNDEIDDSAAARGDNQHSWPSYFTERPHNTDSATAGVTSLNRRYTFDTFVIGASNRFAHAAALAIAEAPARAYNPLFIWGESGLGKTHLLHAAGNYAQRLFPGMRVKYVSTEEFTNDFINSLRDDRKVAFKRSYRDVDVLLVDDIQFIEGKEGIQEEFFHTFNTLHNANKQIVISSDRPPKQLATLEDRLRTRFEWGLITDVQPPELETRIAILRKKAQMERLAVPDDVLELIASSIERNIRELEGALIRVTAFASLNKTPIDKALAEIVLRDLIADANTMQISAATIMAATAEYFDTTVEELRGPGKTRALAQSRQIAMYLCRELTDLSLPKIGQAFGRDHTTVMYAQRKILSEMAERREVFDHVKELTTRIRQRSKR

[2] = target: Mtb DnaB-FLAG, purified recombinant (Mycobacterium tuberculosis); test: pull-down; both purified

Molecule | binding [1] | binding [2]
Mtb DnaB-FLAG, purified recombinant (Mycobacterium tuberculosis) (enzyme) | binds | 
B1 |  | binds
